According to PMC4940160, “Architecture and RNA binding of the human negative elongation factor”:
Results are given in words; binding and its absence hold for the method and conditions named. Some results given as binding are weak or reduced against the parent protein; the word gives no strength.

Chains of the proteins cited; added tags and fusions are not shown. Lines headed by an entry give the natural chain unless they say otherwise; changes in a name come on top. A line that says so, or that is headed by a name, gives the form on record, which may keep a tag or linker. Residues count along the entry.
NELF-A (6–188) (Q9H3P2, residues 6-188): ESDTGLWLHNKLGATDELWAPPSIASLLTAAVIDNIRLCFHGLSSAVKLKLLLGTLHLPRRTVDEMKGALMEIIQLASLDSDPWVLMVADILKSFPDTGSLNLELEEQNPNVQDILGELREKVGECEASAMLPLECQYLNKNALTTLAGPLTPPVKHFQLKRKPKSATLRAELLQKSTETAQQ
NELF-A (6–188) with patch 1 and patch 4 mutations (Q9H3P2, form named): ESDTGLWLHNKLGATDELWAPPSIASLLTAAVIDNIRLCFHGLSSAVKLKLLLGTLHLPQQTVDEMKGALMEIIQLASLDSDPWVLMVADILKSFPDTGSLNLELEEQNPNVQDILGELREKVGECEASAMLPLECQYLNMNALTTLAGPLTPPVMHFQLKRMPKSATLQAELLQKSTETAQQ
NELF-A (6–188) with patch 4 mutations (Q9H3P2, form named): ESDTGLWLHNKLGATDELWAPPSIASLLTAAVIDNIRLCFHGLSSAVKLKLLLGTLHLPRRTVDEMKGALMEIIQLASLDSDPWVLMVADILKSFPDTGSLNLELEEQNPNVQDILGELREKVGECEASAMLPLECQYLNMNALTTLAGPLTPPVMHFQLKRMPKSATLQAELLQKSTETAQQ
UniProt Q8IXH7: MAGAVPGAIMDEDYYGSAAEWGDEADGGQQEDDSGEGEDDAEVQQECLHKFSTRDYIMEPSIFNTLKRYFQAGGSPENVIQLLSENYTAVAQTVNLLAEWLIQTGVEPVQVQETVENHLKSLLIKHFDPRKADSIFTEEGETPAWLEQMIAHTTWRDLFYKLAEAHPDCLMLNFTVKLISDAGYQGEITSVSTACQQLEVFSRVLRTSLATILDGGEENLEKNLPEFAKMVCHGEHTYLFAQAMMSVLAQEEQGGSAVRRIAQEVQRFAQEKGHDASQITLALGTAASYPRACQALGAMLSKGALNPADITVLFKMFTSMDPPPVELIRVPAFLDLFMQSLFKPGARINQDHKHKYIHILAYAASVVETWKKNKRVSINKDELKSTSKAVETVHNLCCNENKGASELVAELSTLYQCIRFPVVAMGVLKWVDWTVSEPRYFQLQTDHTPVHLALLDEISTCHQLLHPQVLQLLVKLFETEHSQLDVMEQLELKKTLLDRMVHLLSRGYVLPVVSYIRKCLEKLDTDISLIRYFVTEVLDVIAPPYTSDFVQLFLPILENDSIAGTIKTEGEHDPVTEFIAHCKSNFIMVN
NELF-C (183–590) with patch 1, 2 and 4 mutations (Q8IXH7, form named): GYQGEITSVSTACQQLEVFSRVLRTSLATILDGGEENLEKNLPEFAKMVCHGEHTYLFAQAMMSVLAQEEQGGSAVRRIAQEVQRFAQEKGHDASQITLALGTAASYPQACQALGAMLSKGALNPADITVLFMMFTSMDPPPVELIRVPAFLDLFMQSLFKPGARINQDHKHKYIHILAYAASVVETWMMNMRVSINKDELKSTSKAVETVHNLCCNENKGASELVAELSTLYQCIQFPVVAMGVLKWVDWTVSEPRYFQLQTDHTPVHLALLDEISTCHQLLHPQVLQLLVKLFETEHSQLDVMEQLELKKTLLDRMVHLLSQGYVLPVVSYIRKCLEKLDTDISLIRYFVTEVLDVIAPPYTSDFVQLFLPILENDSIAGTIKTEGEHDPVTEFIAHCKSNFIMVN
NELF-C (183–590) with patch 1, 2, 3 and 4 mutations (Q8IXH7, form named): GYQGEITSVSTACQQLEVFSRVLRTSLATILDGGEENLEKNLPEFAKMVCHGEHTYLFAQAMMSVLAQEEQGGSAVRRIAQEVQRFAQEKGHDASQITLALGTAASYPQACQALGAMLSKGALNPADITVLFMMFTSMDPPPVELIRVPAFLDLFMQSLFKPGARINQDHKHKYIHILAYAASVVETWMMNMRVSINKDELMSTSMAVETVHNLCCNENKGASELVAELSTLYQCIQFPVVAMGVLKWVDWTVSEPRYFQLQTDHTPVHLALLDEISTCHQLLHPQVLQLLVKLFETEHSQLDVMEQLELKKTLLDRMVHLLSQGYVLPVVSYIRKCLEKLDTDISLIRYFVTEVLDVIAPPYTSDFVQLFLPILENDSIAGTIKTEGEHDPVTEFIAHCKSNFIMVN
NELF-C (183–590) with patch 2, 3 and 4 mutations (Q8IXH7, form named): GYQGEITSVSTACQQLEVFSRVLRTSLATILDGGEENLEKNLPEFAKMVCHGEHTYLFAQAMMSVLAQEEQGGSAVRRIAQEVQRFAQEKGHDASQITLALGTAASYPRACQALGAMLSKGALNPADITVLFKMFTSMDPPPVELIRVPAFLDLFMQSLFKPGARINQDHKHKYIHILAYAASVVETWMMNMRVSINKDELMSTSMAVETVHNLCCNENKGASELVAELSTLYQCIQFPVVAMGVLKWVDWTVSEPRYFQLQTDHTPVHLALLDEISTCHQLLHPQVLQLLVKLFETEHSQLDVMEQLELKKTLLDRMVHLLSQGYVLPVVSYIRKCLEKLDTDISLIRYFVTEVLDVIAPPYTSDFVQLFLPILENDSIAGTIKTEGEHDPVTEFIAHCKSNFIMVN

How the values were obtained:
[1] = target: NELF-A (6–188) (human) (UniProt Q9H3P2); experiment: co-purification after bacterial co-expression; NELF-A and NELF-C variants co-expressed in E. coli; Ni-NTA by the His6 tag on NELF-A (6–188), thrombin, anion exchange, Superose 6 size exclusion; 4°C, 150 mM NaCl, 40 mM Na-HEPES pH 7.4, 2 mM DTT
[2] = target: NELF-A (6–188) (human) (UniProt Q9H3P2); experiment: crystal structure; hanging-drop vapor diffusion, 14–14.5% PEG 3350, 200 mM sodium malonate pH 6.8–7.0; SIRAS; 2.8Å; both purified
[3] = target: NELF-A (6–188) with patch 1 and patch 4 mutations (human) (UniProt Q9H3P2); experiment: co-purification after bacterial co-expression; NELF-A and NELF-C variants co-expressed in E. coli; Ni-NTA by the His6 tag on NELF-A (6–188), thrombin, anion exchange, Superose 6 size exclusion; 4°C, 150 mM NaCl, 40 mM Na-HEPES pH 7.4, 2 mM DTT
[4] = target: NELF-A (6–188) with patch 4 mutations (human) (UniProt Q9H3P2); experiment: as above

| binding [1] | binding [3] | Substance | further results |
| --- | --- | --- | --- |
| binds | – | NELF-C (36–590) (from UniProt Q8IXH7 36-590) (domain or fragment) | – |
| – | binds | NELF-C (183–590) with patch 1, 2 and 4 mutations (from UniProt Q8IXH7 183-590) (domain or fragment) | – |

Continued, substance first:

| Substance | binding [1] | binding [3] | further results |
| --- | --- | --- | --- |
| NELF-C (183–590) (from UniProt Q8IXH7 183-590) (domain or fragment) | binds | – | binding [2]: binds |
| NELF-C (183–590) with patch 1, 2, 3 and 4 mutations (from UniProt Q8IXH7 183-590) (domain or fragment) | – | binds | – |
| NELF-C (183–590) with patch 2, 3 and 4 mutations (from UniProt Q8IXH7 183-590) (domain or fragment) | – | – | binding [4]: binds |
